Assay results reported in article PMC9581527.
No constants are given. Whether binding was seen depends on the method and setting. In cells and extracts the contact can be indirect.

By UniProt entry, the sequences of proteins in these tests, tags left out.
UniProt Q4KUS2: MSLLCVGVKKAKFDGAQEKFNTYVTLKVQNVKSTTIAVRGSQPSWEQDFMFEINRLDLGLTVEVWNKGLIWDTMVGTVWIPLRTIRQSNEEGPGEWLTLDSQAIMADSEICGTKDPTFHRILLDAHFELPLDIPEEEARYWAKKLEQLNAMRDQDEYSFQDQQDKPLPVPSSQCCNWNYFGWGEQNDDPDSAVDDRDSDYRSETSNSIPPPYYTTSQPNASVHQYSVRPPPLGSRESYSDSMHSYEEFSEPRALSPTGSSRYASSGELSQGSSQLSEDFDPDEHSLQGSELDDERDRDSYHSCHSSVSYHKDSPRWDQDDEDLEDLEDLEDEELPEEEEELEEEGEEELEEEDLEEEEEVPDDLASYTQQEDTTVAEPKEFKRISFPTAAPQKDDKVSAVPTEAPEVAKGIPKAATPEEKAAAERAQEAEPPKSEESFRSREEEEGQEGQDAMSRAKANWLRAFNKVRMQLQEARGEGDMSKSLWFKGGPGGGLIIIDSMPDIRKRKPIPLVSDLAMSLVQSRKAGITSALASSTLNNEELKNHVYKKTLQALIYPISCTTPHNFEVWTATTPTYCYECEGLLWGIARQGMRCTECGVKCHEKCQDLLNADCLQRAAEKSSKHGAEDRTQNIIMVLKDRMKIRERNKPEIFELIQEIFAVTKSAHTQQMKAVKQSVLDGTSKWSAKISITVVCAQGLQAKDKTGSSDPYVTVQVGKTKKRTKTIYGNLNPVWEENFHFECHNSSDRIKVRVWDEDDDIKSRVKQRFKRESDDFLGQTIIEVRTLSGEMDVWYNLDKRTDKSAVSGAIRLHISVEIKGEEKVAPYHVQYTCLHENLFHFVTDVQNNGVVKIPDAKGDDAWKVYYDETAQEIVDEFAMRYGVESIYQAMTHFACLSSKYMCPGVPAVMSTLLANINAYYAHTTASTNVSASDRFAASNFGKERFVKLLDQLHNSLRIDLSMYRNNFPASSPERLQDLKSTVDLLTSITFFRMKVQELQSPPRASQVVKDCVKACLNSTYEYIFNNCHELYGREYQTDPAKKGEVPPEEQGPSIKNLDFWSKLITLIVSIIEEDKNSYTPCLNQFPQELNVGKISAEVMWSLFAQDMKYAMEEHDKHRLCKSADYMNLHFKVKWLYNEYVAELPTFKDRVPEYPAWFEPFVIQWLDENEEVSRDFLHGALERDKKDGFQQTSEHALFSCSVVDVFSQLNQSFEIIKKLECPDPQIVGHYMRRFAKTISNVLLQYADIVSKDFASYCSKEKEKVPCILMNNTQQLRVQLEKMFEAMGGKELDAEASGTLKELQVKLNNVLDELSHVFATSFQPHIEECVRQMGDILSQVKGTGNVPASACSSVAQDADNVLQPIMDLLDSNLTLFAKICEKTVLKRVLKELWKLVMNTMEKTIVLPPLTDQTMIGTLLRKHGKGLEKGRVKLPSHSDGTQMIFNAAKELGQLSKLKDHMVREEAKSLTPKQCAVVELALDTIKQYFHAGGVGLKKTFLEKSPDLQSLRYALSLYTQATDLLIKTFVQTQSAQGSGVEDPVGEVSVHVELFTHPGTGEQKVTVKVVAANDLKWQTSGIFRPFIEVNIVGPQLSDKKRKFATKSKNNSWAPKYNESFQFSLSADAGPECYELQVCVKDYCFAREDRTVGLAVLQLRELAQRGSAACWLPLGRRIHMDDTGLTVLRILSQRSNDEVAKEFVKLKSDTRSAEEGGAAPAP
UniProt Q9R0N7: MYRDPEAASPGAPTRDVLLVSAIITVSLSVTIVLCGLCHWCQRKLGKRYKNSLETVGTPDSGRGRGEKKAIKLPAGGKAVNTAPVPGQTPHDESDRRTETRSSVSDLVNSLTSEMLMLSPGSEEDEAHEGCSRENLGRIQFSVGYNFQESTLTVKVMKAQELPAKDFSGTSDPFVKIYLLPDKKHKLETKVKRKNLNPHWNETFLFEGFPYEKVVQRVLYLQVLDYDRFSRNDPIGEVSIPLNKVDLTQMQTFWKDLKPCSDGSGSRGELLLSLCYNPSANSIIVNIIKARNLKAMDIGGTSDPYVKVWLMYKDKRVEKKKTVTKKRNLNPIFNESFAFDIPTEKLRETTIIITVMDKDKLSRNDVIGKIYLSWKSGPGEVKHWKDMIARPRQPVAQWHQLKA

Biological target: Munc13-1 (mouse (endogenous in mouse brain)) (UniProt Q4KUS2)
Assay: co-IP; mouse monoclonal anti-Munc13-1 (3H5) and Sepharose-Protein G beads on solubilised P2 synaptosomal fraction of WT mouse cerebral cortex; 50 mM Tris/HCl pH 8, 150 mM NaCl, 1 mM CaCl2, 1 mM EGTA, 1% IGEPAL; five washes with 0.1% IGEPAL; blot for Munc13-1 and Syt7

binding: no binding
Substance: Synaptotagmin-7 (from UniProt Q9R0N7 1-403)
